The record followed here is CN114671949A.

Chains of the proteins cited; added tags and fusions are not shown. Residues count along the entry.
UniProt P05017, residues 49-118: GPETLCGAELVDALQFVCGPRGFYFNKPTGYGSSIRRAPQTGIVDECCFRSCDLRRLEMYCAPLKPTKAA

These are yes or no findings as the source states them, for the method shown. Some results given as binding are weak or reduced against the parent protein; the word gives no strength. Sequences can lack the tags named with a protein.

The target of assay [1] is 小鼠组织中的IGF1 (endogenous mouse IGF1 in lung and testis tissue) (mouse) (UniProt P05017). The assay is described as follows: immunohistochemistry on mouse testis sections; nanobody as primary antibody, HRP anti-His antibody.
Assay [2] shares this target. Briefly: Western blot of mouse lung tissue protein; nanobody as primary antibody, anti-His antibody for detection.

B1: IGF1纳米抗体 (purified, His-tagged IGF1 nanobody expressed in E. coli from pQE30) (VHH, not shown: small tags and cut ends)
VHH: ESGGGLVQPGGSLRLSCDETSSRTLDYYKIGWFRRAPGKEREGVSCTESNNGSTTYADSVKGRFTVSRDIAENKVYLQMKNLKPEDTGIYYCGADLEVFRRCSFVSNEYDYWGQGTQVTVSS
As to B1, the binding entry in assay [1] and in assay [2] was “binds” in each case.
